These results are taken from article PMC3702609.

Protein sequences, listed by entry. Tags and fused reporters are not part of them. Lines headed by an entry give the natural chain unless they say otherwise; changes in a name come on top.
UniProt P22317: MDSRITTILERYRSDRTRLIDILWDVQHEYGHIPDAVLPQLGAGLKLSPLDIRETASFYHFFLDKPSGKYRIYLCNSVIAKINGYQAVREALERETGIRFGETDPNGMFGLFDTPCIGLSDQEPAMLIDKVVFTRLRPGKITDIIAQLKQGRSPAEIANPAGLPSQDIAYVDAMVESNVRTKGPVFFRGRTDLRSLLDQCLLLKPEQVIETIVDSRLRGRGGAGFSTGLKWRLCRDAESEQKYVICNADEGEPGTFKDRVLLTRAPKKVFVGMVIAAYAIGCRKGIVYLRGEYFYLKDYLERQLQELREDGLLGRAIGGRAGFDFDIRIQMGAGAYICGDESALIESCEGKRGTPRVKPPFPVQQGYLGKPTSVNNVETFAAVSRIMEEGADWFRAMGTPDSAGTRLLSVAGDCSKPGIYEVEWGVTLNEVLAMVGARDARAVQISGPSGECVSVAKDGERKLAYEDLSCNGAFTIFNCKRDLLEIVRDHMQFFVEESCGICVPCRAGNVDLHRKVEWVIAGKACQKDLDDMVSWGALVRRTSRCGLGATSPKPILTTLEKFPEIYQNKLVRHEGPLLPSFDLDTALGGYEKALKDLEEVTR
UniProt P22320: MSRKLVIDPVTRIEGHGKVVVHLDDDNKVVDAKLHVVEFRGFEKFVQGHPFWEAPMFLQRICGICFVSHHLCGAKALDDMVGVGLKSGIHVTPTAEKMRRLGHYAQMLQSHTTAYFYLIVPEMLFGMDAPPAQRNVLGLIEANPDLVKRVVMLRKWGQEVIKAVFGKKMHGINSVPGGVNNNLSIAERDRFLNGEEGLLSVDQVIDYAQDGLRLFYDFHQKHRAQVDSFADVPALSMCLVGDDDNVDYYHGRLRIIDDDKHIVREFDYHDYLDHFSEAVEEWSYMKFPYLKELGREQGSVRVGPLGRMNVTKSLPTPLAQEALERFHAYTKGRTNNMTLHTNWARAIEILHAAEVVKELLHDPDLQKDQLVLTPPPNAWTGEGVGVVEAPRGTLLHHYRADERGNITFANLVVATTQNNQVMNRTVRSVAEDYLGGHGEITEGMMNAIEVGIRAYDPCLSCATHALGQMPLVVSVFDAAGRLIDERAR

These are yes or no findings as the source states them, for the method shown. Binding seen in cells or lysates may run through a third protein. A result given as binding can be weak or reduced; the word gives no strength. For some assays here: Tags and fused reporters may be left off the sequences shown.

Assay [1] deals with HoxF, diaphorase large subunit of the NAD+-reducing soluble [NiFe]-hydrogenase (SH), N-terminally StrepII-tagged (Cupriavidus necator H16) (UniProt P22317). Kind of assay: pull-down; Strep-Tactin Superflow affinity chromatography of the soluble extract of E. coli co-expressing the SH subunits (50 mM KPi pH 7.0, elution with 2.5 mM desthiobiotin), then Superdex 200 HR 10/300 gel filtration; SDS-PAGE; cells harvested 36-40 h after inoculation.

For assay [2], the target named is T1, HoxI, diaphorase-associated subunit of the soluble [NiFe]-hydrogenase (SH) with NADPH activation site, N-terminally StrepII-tagged (Cupriavidus necator H16) (UniProt Q79IN9).
T1 sequence: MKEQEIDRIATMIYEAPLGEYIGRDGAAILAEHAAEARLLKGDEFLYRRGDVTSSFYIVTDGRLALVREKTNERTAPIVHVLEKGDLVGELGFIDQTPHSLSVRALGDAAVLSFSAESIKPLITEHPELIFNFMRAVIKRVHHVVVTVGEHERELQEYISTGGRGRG
The assay is described as above.

Regarding “HoxH, hydrogenase large subunit of the soluble [NiFe]-hydrogenase (SH) (from UniProt P22320)”, the binding entry in assay [1] and in assay [2] was “binds” in each case.
